Source: PubChem BioAssay AID504467 (National Center for Advancing Translational Sciences (NCATS), 2011)
About 7,700 (2.3%) of roughly 330,000 compounds were called active. The shares of active, inactive and inconclusive entries below differ from those in the screen. Calls come from the whole dose curve; as a rule, active = well fitted inhibition curve with a large enough effect; inconclusive = small, poorly fitted or top-dose-only effect, or effect the other way; inactive = flat fitted curve, though single readings scatter. A potency beside an inconclusive call is a rough fit, not a confirmed value.

Assay: qHTS screen for small molecules that inhibit ELG1-dependent DNA repair in human embryonic kidney (HEK293T) cells expressing luciferase-tagged ELG1; note: nearly all actives have a fitted effect of over 55% in size
Details: HEK293T ELG1-luciferase reporter, luminescence, 16 h, DNA damage induced by 5-fluorouridine; activity change, negative = inhibition: at 46.1 µM (top of the series)
Text: NIH Molecular Libraries Probe Production Network [MLPCN] NIH Chemical Genomics Center [NCGC] MLPCN Grant: 1 R03 MH092164-01 Assay Provider: Kyungjae Myung, NHGRI, NIH Keywords: MLPCN, qHTS, NCGC, genotoxicity, cancer Assay Overview: Cancer cells divide rapidly compared to normal cells in the body. During cell division, cancer cells need to duplicate their genome by DNA replication. The failure of genome duplication leads to cancer cells' death. Therefore, inhibitors of DNA replication could specifically kill cancer cells. Based on this concept, many chemotherapeutic agents were developed and have been used to treat cancer patients. However, there are a limited number of agents available in the clinical setting, and some of those that do exist have low efficacy and severe side effects. Therefore, if we can find the compounds that effectively block DNA replication either by directly damaging DNA or by inhibiting other cellular mechanisms, the options for cancer treatment will be broadened. With this in mind, we developed a quantitative high-throughput ELG1-luciferase reporter gene assay. Small molecules that specifically block ELG1 function in response to DNA damage can be identified by monitoring the suppression of luciferase activity. Since ELG1 defines a pathway for repairing DNA damage, agents blocking ELG1 function can be used to sensitize cancer cells to chemotherapeutic agents whose mechanism of action involves the induction of DNA damage.
Assay Protocol Summary: For genotoxicity screening, 2,000 cells in 4 uL/well were dispensed into white, solid-bottom 1536-well plates using a solenoid-based dispenser. Following transfer of 1 uL 5-Fluorouridine and 23 nL compound or DMSO vehicle by a pin tool, the plates were incubated 16 hr at 37 °C and 5% CO2. 5 ul ONE-Glo (Promega) was then added to each plate and following a 30 min incubation at room temperature, luciferase activity was quantified on a ViewLux CCD-based plate reader.
% is set by controls: 0 for no effect and ±100 for the full control effect; potency is the fitted concentration of half-maximal effect.

| Structure (SMILES) | Potency | activity change, negative = inhibition |
| --- | --- | --- |
| COC(=O)C(Cc1ccccc1)OS(N)(=O)=O (stereo unspecified) | inconclusive: 18.3 µM [inhibitor, single point] | – |
| COc1cc(C)ccc1OCC(=O)OCC(=O)c1cc(C)n(CC2CCCO2)c1C (stereo unspecified) | – | inactive: 16.3% |
| Cc1ccc(C)c(S(=O)(=O)N2CCCCC2CCNC(=O)C(=O)NC2CCCC2)c1 (stereo unspecified) | inconclusive: 12.6 µM [inhibitor, partial curve] | – |
| COc1ccccc1Nc1nc(-c2ccccc2O)nc2ccccc12 | inconclusive: 25.9 µM [inhibitor, single point] | – |
| COc1ccc(/C=C/C(=O)c2ccc(Cl)s2)cc1O | inconclusive: 16.4 µM [activator, single point] | – |
| COc1ccc(NC(=O)c2ccc(NC(=O)CCS(=O)(=O)c3cccs3)cc2)cc1 | inconclusive: 14.6 µM [activator, single point] | – |
| CC(=O)c1ccc(N=Nc2ccc(C)cc2)cc1 | inconclusive: 1.03 µM [activator, partial curve] | – |
| COc1ccc(Cl)cc1NC(=O)CN(C)C(=O)c1cc2c(s1)CCCC2 | inconclusive: 20.6 µM [inhibitor, single point] | – |
| COc1ccc2nc(NC(=O)c3cc(S(=O)(=O)N4CCOCC4)ccc3C)sc2c1 | inconclusive: 20.6 µM [inhibitor, partial curve] | – |
| CC(=O)N1CCN(Cc2nc3cc(NC(=O)COc4cccc(C)c4)ccc3n2C)CC1 | – | inactive: -2.25% |
| O=C(Cc1cccc(C(F)(F)F)c1)Nc1cc(S(=O)(=O)N2CCOCC2)ccc1N1CCCC1 | – | inactive: -2.59% |
| CCCCNS(=O)(=O)NC(=O)C1=C(N2CCCC2)COC1=O | inconclusive: 0.184 µM [activator, full curve, poor fit] | – |
| O=C(CCc1ccc(O)cc1)NNC(=S)NCCc1ccccc1 | inconclusive: 16.4 µM [inhibitor, partial curve, poor fit] | – |
| O=C(O)C1CCN(C(=O)Cc2ccccc2)CC1 | – | inactive: 26.9% |
| Cc1ccc2c(CC(=O)NCc3cccs3)coc2c1 | inconclusive: 23.1 µM [activator, single point] | – |
| O=C(NCc1ccccn1)Nc1cccc(Cl)c1Cl | inconclusive: 18.3 µM [activator, partial curve] | – |
| Cc1nn(-c2ccc(C(=O)O)cc2)c(C)c1Oc1ccccc1O | inconclusive: 18.4 µM [activator, single point] | – |
| O=C1/C(=N\S(=O)(=O)c2cccs2)C([n+]2ccccc2)=C([O-])c2ccccc21 | active: 2.59 µM | – |
| CN(CCc1ccccn1)C(=O)CCC1CCCN(C(=O)c2ccsc2)C1 (stereo unspecified) | – | inactive: -1.53% |
| O=C(c1cccc([N+](=O)[O-])c1)c1ccc2c(c1)OCCOCCOCCOCCO2 | inconclusive: 10.3 µM [activator, partial curve] | – |
| Cc1cc(NS(=O)(=O)c2ccc(NC(=S)NC(=O)c3ccc(C(C)(C)C)cc3)cc2)no1 | – | inactive: -18.6% |
| COCCNC(=O)c1c(CS(=O)(=O)c2ccccc2)noc1C(=O)NCc1ccccc1 | – | inactive: 25.3% |

By substructure, the compounds so far containing two or more sulfur atoms

| Structure (SMILES) | Potency | activity change, negative = inhibition |
| --- | --- | --- |
| COc1ccc(NC(=O)c2ccc(NC(=O)CCS(=O)(=O)c3cccs3)cc2)cc1 | inconclusive: 14.6 µM [activator, single point] | – |
| COc1ccc2nc(NC(=O)c3cc(S(=O)(=O)N4CCOCC4)ccc3C)sc2c1 | inconclusive: 20.6 µM [inhibitor, partial curve] | – |
| O=C1/C(=N\S(=O)(=O)c2cccs2)C([n+]2ccccc2)=C([O-])c2ccccc21 | active: 2.59 µM | – |
| Cc1cc(NS(=O)(=O)c2ccc(NC(=S)NC(=O)c3ccc(C(C)(C)C)cc3)cc2)no1 | – | inactive: -18.6% |

Following part.

| Structure (SMILES) | Potency | activity change, negative = inhibition |
| --- | --- | --- |
| COc1ccc(CCNC(=O)CSc2nc3[nH]ncc3c(=O)n2-c2ccc(C)c(Cl)c2)cc1OC | inconclusive: 0.058 µM [activator, full curve, poor fit] | – |
| O=C(CSc1nnc(-c2ccccc2)o1)N1CCc2ccccc2C1 | – | inactive: 1.79% |
| COc1ccc(CCNc2oc(COc3ccccc3F)nc2C#N)cc1OC | active: 23.1 µM | – |
| Cc1sc2ncnc(N3CCC(C(=O)Nc4ccc(Cl)c(Cl)c4)CC3)c2c1C | inconclusive: 29.1 µM [inhibitor, single point] | – |
| Cc1ccc(Oc2cc(NC(=O)CCCn3nc([N+](=O)[O-])c(Cl)c3C)cc([N+](=O)[O-])c2)cc1 | inconclusive: 29.1 µM [inhibitor, single point] | – |
| COc1ccccc1NC(=O)CSCc1ccc([N+](=O)[O-])cc1 | – | inactive: 1.75% |
| COC(=O)CSc1nc2ccccn2c(=O)c1C=O | inconclusive: 16.4 µM [activator, partial curve] | – |
| Clc1ccc(-c2csc(N3CCC(c4ccccc4)C3)n2)cc1 (stereo unspecified) | inconclusive: 14.6 µM [activator, partial curve] | – |
| Oc1c(Cl)cc(Cl)cc1CNn1cnnc1 | inconclusive: 7.3 µM [activator, full curve, poor fit] | – |
| CC(=O)NCc1ccc(S(=O)(=O)NC(C(=O)O)C(C)C)cc1 (stereo unspecified) | – | inconclusive: 51.1% [activator] |
| O=C(NC1CCCc2ccccc21)C1CCN(S(=O)(=O)c2cccc(C(F)(F)F)c2)CC1 (stereo unspecified) | inconclusive: 20.6 µM [inhibitor, single point] | – |
| CC(C)(C)OC(=O)N/N=C\c1ccc(OC(=O)c2cccs2)cc1 | inconclusive: 16.4 µM [activator, partial curve] | – |
| CCn1c(SCC(=O)Nc2ccccc2F)nnc1-c1cnccn1 | inconclusive: 20.6 µM [activator, single point] | – |
| Cc1onc(-c2c(Cl)cccc2Cl)c1C(=O)Nc1ccc(Cl)cn1 | inconclusive: 29.1 µM [inhibitor, single point] | – |
| COc1ccc(CN2CC(=O)N3[C@H]4c5cc(C)ccc5OC[C@@H]4[C@H](c4ccccc4)[C@]3(C)C2=O)cc1 | inconclusive: 32.6 µM [inhibitor, partial curve, poor fit] | – |
| Cc1ccccc1/C=N/Nc1ncnc2nc[nH]c12 | inconclusive: 18.3 µM [activator, partial curve] | – |
| Cc1ccc(C(C[N+](=O)[O-])Sc2ccc(N)cc2)cc1 (stereo unspecified) | inconclusive: 29.1 µM [inhibitor, single point] | – |
| CCC1Oc2ccccc2N(CC(=O)NCCCN2CCCC2)C1=O (stereo unspecified) | inconclusive: 32.6 µM [activator, partial curve, poor fit] | – |
| Cn1cnnc1SCC(=O)Nc1ccc(Oc2ccccc2)cc1 | inconclusive: 8.2 µM [activator, partial curve] | – |
| Cc1ccc(NS(=O)(=O)c2c(C)[nH]c(C)c2C(=O)N2CCCC2)cc1 | – | inactive: 1.32% |
| CCN(c1ccccc1)S(=O)(=O)c1ccc(C(=O)N(C)Cc2cccs2)cc1 | inconclusive: 14.6 µM [inhibitor, single point] | – |
| C/C(=N/NC(=O)c1ccc(Br)o1)c1cccc(NC(=O)c2ccc(F)cc2)c1 | inconclusive: 20.6 µM [inhibitor, partial curve, poor fit] | – |

| Structure (SMILES) | Potency | activity change, negative = inhibition |
| --- | --- | --- |
| CC1CCN(CC(=O)Nc2cccc(C(=O)Nc3cccc(C(F)(F)F)c3)c2)CC1 | inconclusive: 16.4 µM [inhibitor, partial curve, poor fit] | – |
| O=C(Cc1ccccc1)Nc1cc([N+](=O)[O-])ccc1N1CCOCC1 | – | inactive: -8.49% |
| O=C(CSc1n[nH]c(=O)n1C1CC1)Nc1ccc(OC(F)(F)F)cc1 | inconclusive: 25.9 µM [inhibitor, single point] | – |
| Cc1ccc(N2C(S)=C(C#N)C(=O)NC23CCCCC3)cc1 | inconclusive: 29.1 µM [activator, single point] | – |
| COc1ccc(NC(=S)NCc2ccccn2)cc1OC | inconclusive: 5.17 µM [inhibitor, partial curve, poor fit] | – |
| COc1ccc(N2CCN(c3oc(Cc4ccccc4)nc3C#N)CC2)cc1 | inconclusive: 32.6 µM [inhibitor, partial curve, poor fit] | – |
| Cc1cccc(NC(=O)CSc2nc3ccccc3o2)c1 | inconclusive: 1.84 µM [activator, full curve] | – |
| COc1ccc(CC(=O)NCc2cccs2)cc1OC | – | inactive: 1.52% |
| O=C(NCCc1ccc(F)cc1)c1cc(=O)c2ccccc2o1 | inconclusive: 13 µM [inhibitor, partial curve, poor fit] | – |
| CCc1nnc(NC(=O)CC(CN(C)S(=O)(=O)c2ccccc2)c2ccccc2)s1 (stereo unspecified) | inconclusive: 23.1 µM [inhibitor, single point] | – |
| CN(C(=O)NC(=O)C1=C(N2CCOCC2)/C(=C/c2ccccc2)CC1)S(C)(=O)=O | inconclusive: 16.4 µM [activator, partial curve] | – |
| CCCC(=O)c1ccc(N2CCCCCC2)c(F)c1 | inconclusive: 20.6 µM [activator, partial curve] | – |
| O=C(CNc1ccc(Cl)cc1)NNC(=S)NCc1ccccc1 | – | inactive: -2.16% |
| CC(=O)Nc1nnc(SCC(=O)NC2CC2)s1 | – | inactive: 10.1% |
| COc1cccc(-c2nn(-c3ccccc3)cc2CNC(C)Cn2cncn2)c1 (stereo unspecified) | inconclusive: 29.1 µM [activator, single point] | – |
| Nc1ccc(C(=O)NCCCSc2ccccc2)cc1[N+](=O)[O-] | – | inactive: -2.8% |
| C/C(=N\S(=O)(=O)c1ccc(C)cc1)NC(=S)Nc1ccc(C)cc1 | inconclusive: 29.1 µM [activator, single point] | – |
| O=C1[C@H]2[C@@H](C(=O)N1c1cc(Cl)cc(Cl)c1)[C@]1(C(=O)Nc3ccccc31)N1CCC[C@@H]21 | inconclusive: 18.4 µM [inhibitor, partial curve, poor fit] | – |
| CCOC(=O)N1CCC(NC(=O)c2cc(C(=O)NCc3cccc(Cl)c3)ccc2CO)CC1 | inconclusive: 13 µM [inhibitor, partial curve] | – |
| CCN(CCCNC(=O)Cn1ncc2c([nH]c3ccc(C)cc32)c1=O)Cc1ccccc1 | – | inactive: 0% |
| CC(=O)[C@@]12O[C@@H]1C[C@H]1[C@@H]3CC[C@H]4C[C@@H](O)CC[C@]4(C)[C@H]3CC[C@@]12C | inconclusive: 0.13 µM [inhibitor, single point] | – |
| CCN1CCN(c2ncnc3scc(-c4ccc(OC)cc4)c23)CC1 | inconclusive: 16.4 µM [inhibitor, partial curve, poor fit] | – |
